Measured values from publication PMC10127071.
These are yes or no findings as the source states them, for the method shown. In cells and extracts the contact can be indirect. Binding calls can cover weak binding; strength is not graded here. For part of these data: Tags and fused reporters may be left off the sequences shown. Blank lines part the entries; values can stand above or below the molecule they belong to.

Assays:
[1] = target: T1, C1qbp-HA (UniProt O35658); assay: co-IP; reciprocal co-immunoprecipitation from transiently transfected cells lysed in RIPA buffer, protein A/G beads, Western blotting; rabbit normal IgG as control
T1 sequence: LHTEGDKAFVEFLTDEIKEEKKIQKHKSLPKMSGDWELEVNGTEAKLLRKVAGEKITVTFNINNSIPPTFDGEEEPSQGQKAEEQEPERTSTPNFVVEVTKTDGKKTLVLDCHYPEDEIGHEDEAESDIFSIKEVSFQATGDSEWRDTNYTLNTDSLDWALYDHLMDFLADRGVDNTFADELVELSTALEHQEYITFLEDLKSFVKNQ

[2] = target: Rsrc1-161aa-eGFP (mouse); assay: as above
[3] = target: Rsrc1-161aa-HA (mouse); assay: proximity ligation; in situ PLA (Duolink) in fixed GC-1 spg cells transiently transfected with Rsrc1-161aa-HA; mouse anti-HA and rabbit anti-C1qbp; no primary antibody as negative control

binding [1]: binds
Molecule: Rsrc1-161aa-eGFP (mouse)

binding [2]: binds
B1: C1qbp-HA (protein, UniProt O35658 71-278)
chain: T1 sequence

binding [3]: binds
B2: Complement component 1, q subcomponent binding protein (protein, UniProt O35658 71-278)
chain: T1 sequence
